From paper PMC4046817
No constants are given. Whether binding was seen depends on the method and setting. Binding calls can cover weak binding; strength is not graded here.

Protein sequences, listed by entry. Tags and fused reporters are not part of them. Lines headed by an entry give the natural chain unless they say otherwise; changes in a name come on top.
UniProt Q7LX67: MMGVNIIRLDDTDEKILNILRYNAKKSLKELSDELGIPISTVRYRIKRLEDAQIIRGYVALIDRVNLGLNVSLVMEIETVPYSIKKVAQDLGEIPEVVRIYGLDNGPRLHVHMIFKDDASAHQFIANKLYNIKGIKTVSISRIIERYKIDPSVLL

Biological target: T1, LysM, lysine-responsive Lrp-like transcription factor from Sulfolobus solfataricus (Sulfolobus solfataricus) (UniProt Q980W9)
T1 sequence: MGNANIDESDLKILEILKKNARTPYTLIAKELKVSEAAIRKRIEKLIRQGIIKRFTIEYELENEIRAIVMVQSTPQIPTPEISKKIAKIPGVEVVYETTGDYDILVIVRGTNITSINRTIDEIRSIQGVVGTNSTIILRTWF
Assay: native gel or EMSA; EMSA with a 32P-labelled 348-bp DNA probe encompassing the Ssot28 target; 40 nM LysM, 320 nM Ss-LrpB, supershift with 500 nM Ss-LrpB-specific nanobody; LrpB binding buffer; LysM is bound to the DNA, Ss-LrpB does not bind this DNA by itself; both purified

binding: binds
Substance: Ss-LrpB, Lrp-like transcription factor from Sulfolobus solfataricus (from UniProt Q7LX67)
